According to the supplement of paper PMC10849652:
This is one part of the list.

Protein sequences, listed by entry. Tags and fused reporters are not part of them. Lines headed by an entry give the natural chain unless they say otherwise; changes in a name come on top.
UniProt Q7L523, whole entry, looked up: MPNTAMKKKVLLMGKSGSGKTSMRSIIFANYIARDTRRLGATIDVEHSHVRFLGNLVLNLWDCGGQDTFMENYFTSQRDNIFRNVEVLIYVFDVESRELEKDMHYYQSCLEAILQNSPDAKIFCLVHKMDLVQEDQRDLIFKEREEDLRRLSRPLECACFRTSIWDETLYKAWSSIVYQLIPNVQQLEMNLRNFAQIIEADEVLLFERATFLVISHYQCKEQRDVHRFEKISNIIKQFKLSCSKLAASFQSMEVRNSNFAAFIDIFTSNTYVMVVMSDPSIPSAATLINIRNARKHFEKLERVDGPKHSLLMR
UniProt P23443: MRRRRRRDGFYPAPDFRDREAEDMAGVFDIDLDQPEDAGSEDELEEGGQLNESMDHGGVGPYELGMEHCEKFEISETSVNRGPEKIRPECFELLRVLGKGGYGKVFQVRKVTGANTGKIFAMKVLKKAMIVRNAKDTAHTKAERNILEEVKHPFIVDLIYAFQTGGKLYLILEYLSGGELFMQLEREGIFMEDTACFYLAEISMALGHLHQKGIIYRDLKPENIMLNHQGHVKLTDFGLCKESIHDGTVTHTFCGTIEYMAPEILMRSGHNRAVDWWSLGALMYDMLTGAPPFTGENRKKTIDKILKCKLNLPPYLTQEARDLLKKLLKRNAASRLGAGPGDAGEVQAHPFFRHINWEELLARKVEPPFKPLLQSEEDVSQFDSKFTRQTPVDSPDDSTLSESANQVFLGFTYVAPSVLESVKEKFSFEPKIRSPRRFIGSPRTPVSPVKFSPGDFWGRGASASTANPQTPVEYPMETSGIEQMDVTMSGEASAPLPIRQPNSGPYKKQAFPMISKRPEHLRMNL
UniProt P04844: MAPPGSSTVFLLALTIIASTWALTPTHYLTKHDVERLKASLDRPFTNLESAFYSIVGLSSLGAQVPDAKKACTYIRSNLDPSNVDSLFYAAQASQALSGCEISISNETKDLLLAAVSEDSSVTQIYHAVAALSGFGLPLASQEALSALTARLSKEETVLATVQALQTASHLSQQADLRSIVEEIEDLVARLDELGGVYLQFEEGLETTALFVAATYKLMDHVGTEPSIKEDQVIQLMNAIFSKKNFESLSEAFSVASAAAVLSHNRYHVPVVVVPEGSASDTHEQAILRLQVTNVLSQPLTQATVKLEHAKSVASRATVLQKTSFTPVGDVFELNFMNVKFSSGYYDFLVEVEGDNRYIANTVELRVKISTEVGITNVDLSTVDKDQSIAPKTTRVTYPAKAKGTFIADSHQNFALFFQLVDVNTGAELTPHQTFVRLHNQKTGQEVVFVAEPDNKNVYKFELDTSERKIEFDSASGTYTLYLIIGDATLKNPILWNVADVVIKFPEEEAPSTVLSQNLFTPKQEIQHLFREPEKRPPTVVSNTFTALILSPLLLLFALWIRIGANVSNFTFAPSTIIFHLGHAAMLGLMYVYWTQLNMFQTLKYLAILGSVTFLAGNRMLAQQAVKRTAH
UniProt Q9UBF6, whole entry, looked up: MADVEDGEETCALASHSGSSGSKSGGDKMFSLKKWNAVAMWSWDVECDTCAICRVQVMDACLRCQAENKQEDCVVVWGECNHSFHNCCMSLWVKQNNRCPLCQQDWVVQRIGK
UniProt Q8TA86: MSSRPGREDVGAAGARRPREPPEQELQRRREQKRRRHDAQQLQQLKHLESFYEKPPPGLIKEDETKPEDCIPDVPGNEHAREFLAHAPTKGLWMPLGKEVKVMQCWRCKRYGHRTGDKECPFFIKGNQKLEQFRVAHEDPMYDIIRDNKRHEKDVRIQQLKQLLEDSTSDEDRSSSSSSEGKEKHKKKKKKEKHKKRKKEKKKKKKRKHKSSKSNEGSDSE
UniProt Q9P2E9: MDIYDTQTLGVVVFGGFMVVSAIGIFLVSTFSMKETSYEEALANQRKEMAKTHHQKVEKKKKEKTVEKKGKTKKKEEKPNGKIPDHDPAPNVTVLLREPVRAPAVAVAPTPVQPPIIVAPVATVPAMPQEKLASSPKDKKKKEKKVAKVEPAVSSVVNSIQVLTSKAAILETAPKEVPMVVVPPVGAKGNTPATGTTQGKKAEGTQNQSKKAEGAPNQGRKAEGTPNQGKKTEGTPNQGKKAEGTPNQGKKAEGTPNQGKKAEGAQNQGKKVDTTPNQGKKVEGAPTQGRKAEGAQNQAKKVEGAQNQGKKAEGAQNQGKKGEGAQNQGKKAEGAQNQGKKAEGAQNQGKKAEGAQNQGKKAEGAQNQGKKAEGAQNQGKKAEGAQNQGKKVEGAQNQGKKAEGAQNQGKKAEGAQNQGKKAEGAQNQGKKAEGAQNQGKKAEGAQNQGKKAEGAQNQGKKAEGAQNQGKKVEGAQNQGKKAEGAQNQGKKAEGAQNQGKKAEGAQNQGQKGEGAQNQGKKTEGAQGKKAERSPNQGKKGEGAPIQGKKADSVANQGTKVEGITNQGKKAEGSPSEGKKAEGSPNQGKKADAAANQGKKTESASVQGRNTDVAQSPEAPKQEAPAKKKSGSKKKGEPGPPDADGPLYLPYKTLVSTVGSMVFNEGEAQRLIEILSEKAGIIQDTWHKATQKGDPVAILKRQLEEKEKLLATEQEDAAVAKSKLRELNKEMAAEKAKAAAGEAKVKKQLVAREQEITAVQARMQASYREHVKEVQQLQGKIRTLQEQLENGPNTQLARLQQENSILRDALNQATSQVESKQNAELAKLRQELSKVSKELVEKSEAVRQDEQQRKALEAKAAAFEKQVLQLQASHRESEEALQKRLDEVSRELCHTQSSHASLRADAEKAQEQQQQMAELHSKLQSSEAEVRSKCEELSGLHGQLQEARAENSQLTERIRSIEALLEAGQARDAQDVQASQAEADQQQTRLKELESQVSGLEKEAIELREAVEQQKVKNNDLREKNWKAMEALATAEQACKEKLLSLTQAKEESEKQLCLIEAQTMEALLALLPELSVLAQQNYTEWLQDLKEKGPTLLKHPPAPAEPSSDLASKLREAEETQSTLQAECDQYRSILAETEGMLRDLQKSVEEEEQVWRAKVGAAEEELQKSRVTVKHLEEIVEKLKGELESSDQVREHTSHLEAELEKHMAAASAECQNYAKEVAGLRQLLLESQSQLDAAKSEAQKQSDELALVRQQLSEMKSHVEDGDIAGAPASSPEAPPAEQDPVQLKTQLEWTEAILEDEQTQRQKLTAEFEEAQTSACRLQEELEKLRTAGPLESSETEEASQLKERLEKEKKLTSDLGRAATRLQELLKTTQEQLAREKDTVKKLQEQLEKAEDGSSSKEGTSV
UniProt Q96S38: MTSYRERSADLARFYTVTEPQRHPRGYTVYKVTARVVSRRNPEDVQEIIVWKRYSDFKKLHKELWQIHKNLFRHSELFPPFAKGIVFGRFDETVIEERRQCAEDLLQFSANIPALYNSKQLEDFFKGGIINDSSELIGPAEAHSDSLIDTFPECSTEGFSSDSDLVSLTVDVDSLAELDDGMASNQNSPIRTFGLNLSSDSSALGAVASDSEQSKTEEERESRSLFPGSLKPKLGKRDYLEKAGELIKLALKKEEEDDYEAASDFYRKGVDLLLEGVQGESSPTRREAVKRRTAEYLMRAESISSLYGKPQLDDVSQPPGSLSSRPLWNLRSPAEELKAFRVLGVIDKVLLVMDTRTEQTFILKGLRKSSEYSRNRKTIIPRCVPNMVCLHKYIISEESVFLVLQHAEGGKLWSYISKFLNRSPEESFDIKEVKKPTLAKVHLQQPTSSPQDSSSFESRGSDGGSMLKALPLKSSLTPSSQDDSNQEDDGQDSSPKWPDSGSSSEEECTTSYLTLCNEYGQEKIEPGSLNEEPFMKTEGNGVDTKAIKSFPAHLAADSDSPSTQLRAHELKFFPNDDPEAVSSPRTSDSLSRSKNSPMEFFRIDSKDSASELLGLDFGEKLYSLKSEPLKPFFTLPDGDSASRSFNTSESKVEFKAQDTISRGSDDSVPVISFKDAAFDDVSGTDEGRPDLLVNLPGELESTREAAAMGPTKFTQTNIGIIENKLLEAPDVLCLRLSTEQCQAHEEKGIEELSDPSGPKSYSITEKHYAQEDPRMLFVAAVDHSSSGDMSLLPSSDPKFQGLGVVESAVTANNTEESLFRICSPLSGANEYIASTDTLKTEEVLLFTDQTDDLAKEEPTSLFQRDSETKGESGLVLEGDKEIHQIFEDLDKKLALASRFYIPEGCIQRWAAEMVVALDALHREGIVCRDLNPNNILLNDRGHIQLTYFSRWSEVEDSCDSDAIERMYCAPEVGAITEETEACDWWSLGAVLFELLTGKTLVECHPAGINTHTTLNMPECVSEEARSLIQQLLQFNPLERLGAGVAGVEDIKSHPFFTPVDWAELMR
UniProt O75818: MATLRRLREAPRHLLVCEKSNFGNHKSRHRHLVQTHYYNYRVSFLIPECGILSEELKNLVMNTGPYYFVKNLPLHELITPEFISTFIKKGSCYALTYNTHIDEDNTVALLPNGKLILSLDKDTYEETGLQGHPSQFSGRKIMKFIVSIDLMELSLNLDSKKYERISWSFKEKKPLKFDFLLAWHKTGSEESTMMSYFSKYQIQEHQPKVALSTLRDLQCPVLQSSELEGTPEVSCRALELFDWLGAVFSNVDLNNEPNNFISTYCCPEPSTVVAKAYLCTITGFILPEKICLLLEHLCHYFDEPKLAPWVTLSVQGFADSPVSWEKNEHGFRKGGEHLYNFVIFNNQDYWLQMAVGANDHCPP
UniProt P62070: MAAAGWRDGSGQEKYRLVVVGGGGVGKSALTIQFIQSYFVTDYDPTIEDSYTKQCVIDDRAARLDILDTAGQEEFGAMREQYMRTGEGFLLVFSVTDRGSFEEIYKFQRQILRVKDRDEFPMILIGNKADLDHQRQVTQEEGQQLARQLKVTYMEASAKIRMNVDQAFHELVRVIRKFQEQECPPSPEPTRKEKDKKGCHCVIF
UniProt Q96BH1: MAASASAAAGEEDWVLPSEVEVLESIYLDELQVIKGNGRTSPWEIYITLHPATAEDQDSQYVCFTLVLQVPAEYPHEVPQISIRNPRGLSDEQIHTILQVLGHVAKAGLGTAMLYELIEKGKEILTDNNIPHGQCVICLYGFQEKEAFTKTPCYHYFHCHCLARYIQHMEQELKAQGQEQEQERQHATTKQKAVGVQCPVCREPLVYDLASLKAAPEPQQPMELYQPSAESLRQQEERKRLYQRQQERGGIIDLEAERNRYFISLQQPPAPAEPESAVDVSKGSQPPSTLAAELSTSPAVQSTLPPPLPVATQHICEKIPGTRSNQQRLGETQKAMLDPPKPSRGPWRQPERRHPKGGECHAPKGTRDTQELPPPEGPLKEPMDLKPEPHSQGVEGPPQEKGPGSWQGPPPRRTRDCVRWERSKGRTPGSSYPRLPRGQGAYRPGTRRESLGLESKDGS
UniProt P35244: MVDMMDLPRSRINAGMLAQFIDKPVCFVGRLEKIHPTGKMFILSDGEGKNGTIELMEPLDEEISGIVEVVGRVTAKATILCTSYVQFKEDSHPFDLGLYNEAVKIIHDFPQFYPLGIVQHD
UniProt Q15349, whole entry, looked up: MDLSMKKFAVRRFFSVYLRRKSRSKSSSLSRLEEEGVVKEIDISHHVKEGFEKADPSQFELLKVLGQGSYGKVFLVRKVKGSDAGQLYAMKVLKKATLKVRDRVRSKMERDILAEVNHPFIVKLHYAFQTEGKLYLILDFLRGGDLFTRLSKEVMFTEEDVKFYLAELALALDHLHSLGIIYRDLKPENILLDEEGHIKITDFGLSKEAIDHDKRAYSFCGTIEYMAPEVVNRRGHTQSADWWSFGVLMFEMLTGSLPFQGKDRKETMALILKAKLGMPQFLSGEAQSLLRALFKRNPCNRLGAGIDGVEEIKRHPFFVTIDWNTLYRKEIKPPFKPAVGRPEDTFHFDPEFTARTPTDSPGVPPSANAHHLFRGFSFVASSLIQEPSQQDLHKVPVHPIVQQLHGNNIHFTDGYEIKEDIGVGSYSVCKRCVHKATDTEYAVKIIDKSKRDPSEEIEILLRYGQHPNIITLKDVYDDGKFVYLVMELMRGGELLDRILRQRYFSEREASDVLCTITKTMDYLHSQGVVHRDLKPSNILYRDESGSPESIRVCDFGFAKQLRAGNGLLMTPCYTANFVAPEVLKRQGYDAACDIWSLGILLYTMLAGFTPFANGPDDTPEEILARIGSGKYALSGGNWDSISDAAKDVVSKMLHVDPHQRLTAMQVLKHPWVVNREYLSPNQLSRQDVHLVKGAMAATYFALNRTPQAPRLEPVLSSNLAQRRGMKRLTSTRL
UniProt O75695: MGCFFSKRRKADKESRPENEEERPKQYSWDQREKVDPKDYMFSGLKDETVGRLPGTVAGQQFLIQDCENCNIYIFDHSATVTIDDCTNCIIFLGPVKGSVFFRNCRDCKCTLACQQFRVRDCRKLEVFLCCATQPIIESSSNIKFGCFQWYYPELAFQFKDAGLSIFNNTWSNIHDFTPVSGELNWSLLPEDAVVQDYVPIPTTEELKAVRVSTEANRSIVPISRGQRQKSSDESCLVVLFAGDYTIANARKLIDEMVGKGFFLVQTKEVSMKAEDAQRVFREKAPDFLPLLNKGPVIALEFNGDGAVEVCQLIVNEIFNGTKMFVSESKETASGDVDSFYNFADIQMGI

What follows are targets tested with CO[C@H]1C[C@@H]2CC[C@@H](C)[C@@](O)(O2)C(=O)C(=O)N2CCCC[C@H]2C(=O)O[C@H]([C@H](C)C[C@@H]2CC[C@H](n3cnnn3)[C@H](OC)C2)CC(=O)[C@H](C)/C=C(\C)[C@@H](O)[C@@H](OC)C(=O)[C@H](C)C[C@H](C)/C=C/C=C/C=C/1C [zotarolimus] (assay: log2 fold change, soluble protein after heating vs DMSO (PISA); higher = thermal stabilisation; K562 cells, 10 uM, 30 min; active = over 0.2 and 3.5 SD of the protein, either way, in both replicates (recomputed)).
Procedure, shortened: (§1)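 K562 cells at 2×10^6 cells/mL were treated with 10 μM compound for 30 min. Aliquots were heated for 3 min across 48°C-58°C, pooled, and extracted in PBS with 0.5% NP-40 at 4°C; soluble protein was the supernatant after 21,000xg for 90 min. Soluble protein was quantified by TMTpro 16plex LC-MS/MS with channel sums equalised, and reported as log2 fold change in thermal stability against DMSO controls, with values from duplicates.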

log2 fold change, inactive:
RPS17 (UniProt P08708) -0.001, RPS13 (UniProt P62277) 0.015, RRAGA (UniProt Q7L523) 0.055, RPL37 (UniProt P61927) -0.074, RPS14 (UniProt P62263) 0.028, RPL36 (UniProt Q9Y3U8) 0.06, RPS29 (UniProt P62273) -0.017, RPS6KB1 (UniProt P23443) 0.004, RPN2 (UniProt P04844) 0.024, RPL15 (UniProt P61313) 0.003, RPL5 (UniProt P46777) 0.001, RPS15 (UniProt P62841) -0.082, RPL24 (UniProt P83731) -0.025, RPS24 isoform 4 (UniProt P62847) -0.034, RPS5 (UniProt P46782) 0.011, RPS2 (UniProt P15880) -0.013, RPS26 (UniProt P62854) 0.013

The targets below were run with COc1cc(C(=O)O)ccc1NC(=O)[C@@H]1N[C@@H](CC(C)(C)C)[C@](C#N)(c2ccc(Cl)cc2F)[C@H]1c1cccc(Cl)c1F [idasanutlin] in the same assay as above.
Procedure, shortened: as §1

log2 fold change, inactive:
RNF7 (UniProt Q9UBF6) -0.062, RPS20 isoform 2 (UniProt P60866) 0.047, RPS27A (UniProt P62979) 0.129, RP9 (UniProt Q8TA86) 0.117, RRBP1 (UniProt Q9P2E9) 0.224, RPL39P5 (UniProt Q59GN2) 0.199, RPL36AL (UniProt Q969Q0) 0.178, RPS6KC1 (UniProt Q96S38) 0, RPL23 (UniProt P62829) 0.169, RPP40 (UniProt O75818) -0.033, RRAS2 isoform 4 (UniProt P62070) 0.016, RPS23 (UniProt P62266) 0.208, RPL30 (UniProt P62888) 0.318, RPL11 (UniProt P62913) 0.248, RNF25 (UniProt Q96BH1) -0.027, RPL12 (UniProt P30050) 0.292, RPS3 (UniProt P23396) 0.055, RPA3 (UniProt P35244) -0.064, RPS25 (UniProt P62851) 0.061, RPL27 (UniProt P61353) 0.255, RPS6KA2 isoform 2 (UniProt Q15349) -0.033, RPL36A (UniProt P83881) 0.149, RP2 (UniProt O75695) -0.087, RPS17 (UniProt P08708) 0.094, RPS13 (UniProt P62277) 0.145, RRAGA (UniProt Q7L523) 0.109, RPL37 (UniProt P61927) 0.247, RPS14 (UniProt P62263) 0.062, RPL36 (UniProt Q9Y3U8) 0.303, RPS29 (UniProt P62273) 0.273, RPS6KB1 (UniProt P23443) -0.114, RPN2 (UniProt P04844) -0.014, RPL15 (UniProt P61313) 0.41, RPL5 (UniProt P46777) 0.163, RPS15 (UniProt P62841) 0.049, RPL24 (UniProt P83731) 0.207, RPS24 isoform 4 (UniProt P62847) 0.12, RPS5 (UniProt P46782) 0.094, RPS2 (UniProt P15880) 0.114, RPS26 (UniProt P62854) 0.147
